Measurements: PubChem BioAssay AID493014 (National Center for Advancing Translational Sciences (NCATS), 2011)
This is one part of the list. Shown are side measurements of this screen, not its main read-out; they come without a call. Compounds called inactive in the main read-out are mostly missing here. Potencies come from curve fits of mixed quality, noted in brackets.

Test: qHTS Assay to Find Inhibitors of Chronic Active B-Cell Receptor Signaling
Details: ABC-DLBCL IkBa-CBG/CBR reporter, luminescence ratio (green luciferase fused to IkBa over red control in TMD8 lymphoma cells), 4 h
Procedure, shortened: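 TMD8 ABC-DLBCL cells carrying doxycycline-inducible green luciferase fused to IkappaBalpha plus unfused red luciferase were exposed to compounds (up to 46 uM) for 4 hrs at 37C. Activity came from the overlap-corrected green/red luminescence ratio.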

[1] = measured here: CBR red luminescence, cell number
[2] = measured here: IkBa-CBG green luminescence

Row | Compound | AC50 [1] | AC50 [2]
1 | O=C1NCCN/C1=C\C(=O)c1ccc(F)cc1 | 11.2 µM [falling, partial curve] | –
2 | Cc1noc(C)c1COc1ccc(CC(=O)NC2CCCCCC2)cc1 | 35.5 µM [rising, partial curve, poor fit] | –
3 | COc1ccccc1NC(=O)CSC1=Nc2ccccc2C2=NC(CCC(=O)NCCc3ccccc3)C(=O)N12 (centres undefined) | 8.91 µM [falling, partial curve, poor fit] | –
4 | CCN1C(=O)[C@H]2[C@@H](c3ccc(-c4ccc(F)cc4)cc3)N3CCCC[C@@]3(C(=O)OC)[C@H]2C1=O | 7.31 µM [falling, partial curve] | –
5 | CCN(CC(=O)Nc1c(C(=O)OC)[nH]c2ccc(C)cc12)c1ccc2c(c1)OCO2 | 11.2 µM [falling, partial curve] | –
6 | CCOC(=O)c1c(-c2ccc(C)o2)csc1NC(=O)CSc1nncs1 | 0.224 µM [falling, full curve, poor fit] | –
7 | COc1ccc(C2C(C#N)=C(N)N3C(=C2C#N)Sc2ccccc23)cc1 (centres undefined) | 6.31 µM [rising, single point] | –
8 | O=C(Cc1cc(=O)[nH][nH]1)N/N=C/c1ccccc1[N+](=O)[O-] | 23.1 µM [rising, partial curve, poor fit] | –
9 | CC(=NNC(=O)c1cc(C)nc2ccccc12)c1ccc(N2CCOCC2)cc1 | 18.4 µM [rising, single point] | 20.6 µM [falling, partial curve]
10 | CC(C)(C)c1ccc(CN(Cc2ccco2)Cc2nnnn2C2CCCC2)cc1 | – | 1.12 µM [rising, full curve, poor fit]
11 | Clc1ccc(OCc2nn3c(C4CCCCC4)nnc3s2)cc1 | 1.84 µM [falling, partial curve] | –
12 | Cc1cccc(NC(=O)C2CCCN2C(=O)Oc2ccccc2)c1C (centres undefined) | 16.4 µM [rising, partial curve, poor fit] | –
13 | CC(C)=CCN1CCN(Cc2ccc(Sc3nncn3C)o2)CC1CCO (centres undefined) | 22.4 µM [rising, single point] | 22.4 µM [falling, single point]
14 | COc1ccccc1-n1cnc2sc(-c3ccccc3)cc2c1=O | 0.126 µM [falling, full curve] | –
15 | COCc1nnc(NC(=O)CCS(=O)(=O)c2ccccc2)s1 | 17.8 µM [falling, partial curve] | –
16 | COc1cc2c(-c3ccc4c(c3)OCO4)c(-c3ccsc3)oc(=O)c2cc1OC | 4.61 µM [falling, single point] | –
17 | C=CCNC(=O)COC(=O)c1c2c(nc3ccccc13)CCC2 | 0.631 µM [falling, full curve] | –

In the list so far, these have a thiophene ring, fused or not.
Row | Compound | AC50 [1] | AC50 [2]
6 | CCOC(=O)c1c(-c2ccc(C)o2)csc1NC(=O)CSc1nncs1 | 0.224 µM [falling, full curve, poor fit] | –
14 | COc1ccccc1-n1cnc2sc(-c3ccccc3)cc2c1=O | 0.126 µM [falling, full curve] | –
16 | COc1cc2c(-c3ccc4c(c3)OCO4)c(-c3ccsc3)oc(=O)c2cc1OC | 4.61 µM [falling, single point] | –
